Laboratory results from US20120058051A1 (US Dept. of Health and Human Services, published 2012).
Results are given in words; binding and its absence hold for the method and conditions named. Some results given as binding are weak or reduced against the parent protein; the word gives no strength.

Amino acid sequences for entries named in this document (tags omitted). Residues count along the entry.
Fc-hROR1(d1d2) (Q01973, residues 30-307): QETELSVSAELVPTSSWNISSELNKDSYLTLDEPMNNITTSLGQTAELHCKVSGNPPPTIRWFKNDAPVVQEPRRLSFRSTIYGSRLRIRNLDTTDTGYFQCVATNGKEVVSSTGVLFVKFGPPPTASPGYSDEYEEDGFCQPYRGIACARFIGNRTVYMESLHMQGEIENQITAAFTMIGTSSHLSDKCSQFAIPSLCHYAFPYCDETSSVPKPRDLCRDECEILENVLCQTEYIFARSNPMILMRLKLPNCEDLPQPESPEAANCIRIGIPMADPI
Fc-hROR(d1) (Q01973, residues 30-160): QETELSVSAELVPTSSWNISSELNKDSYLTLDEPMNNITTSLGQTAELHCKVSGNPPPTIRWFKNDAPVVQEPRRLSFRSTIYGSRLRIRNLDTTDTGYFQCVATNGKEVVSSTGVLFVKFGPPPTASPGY

Key:
Fc-hROR1(d1d2) (human) = Fc-hROR1(d1d2) (human) (UniProt Q01973); assay: ELISA, coated construct; score ++
Fc-hROR(d1) (human) = Fc-hROR(d1) (human) (UniProt Q01973); assay: ELISA, coated construct; score +

B1: mouse monoclonal antibody (mAb) 2A2 (antibody, mouse IgG1, V domains shown)
VH: QVQLQQSGAELVRPGASVTLSCKASGYTFSDYEMHWVIQTPVHGLEWIGAIDPETGGTAYNQKFKGKAILTADKSSSTAYMELRSLTSEDSAVYYCTGYYDYDSFTYWGQGTLVTVSA
VL: DIVMTQSQKIMSTTVGDRVSITCKASQNVDAAVAWYQQKPGQSPKLLIYSASNRYTGVPDRFTGSGSGTDFTLTISNMQSEDLADYFCQQYDIYPYTFGGGTKLEIK
notes: also called mouse mAb 2A2
binding (Fc-hROR1(d1d2) (human)): binds | binding (Fc-hROR(d1) (human)): binds
